The test addresses S. Typhimurium FliF RBM1 (FliF_(50–124)) (Salmonella enterica serovar Typhimurium) (UniProt P15928). The test can be described thus: SEC; purified protein on Superdex 200 10/300 or Superose 6 10/300; 50 mM Hepes pH 8.0 or 9.0, 500 mM NaCl; oligomeric state from the elution volume; both purified.

Chains of the proteins cited; added tags and fusions are not shown. Residues count along the entry.
UniProt P15928, residues 50-124: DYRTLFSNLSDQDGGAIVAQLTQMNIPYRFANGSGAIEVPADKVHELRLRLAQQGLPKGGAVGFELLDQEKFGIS

No constants are given. Whether binding was seen depends on the method and setting.

Take “S. Typhimurium FliF RBM1 (FliF_(50–124)) (from UniProt P15928 50-124) (domain or fragment)”: the binding entry was “no binding”.

These data come from paper PMC8786727, “Oligomerization of the FliF Domains Suggests a Coordinated Assembly of the Bacterial Flagellum MS Ring” (Frontiers in Microbiology, 2021).
